PMC7476095
No constants are given. Whether binding was seen depends on the method and setting. In cells and extracts the contact can be indirect. These calls come from enrichment with a bait or labelling near it, and not all partners need be listed. Sequences can lack the tags named with a protein.

By UniProt entry, the sequences of proteins in these tests, tags left out.
UniProt P13010: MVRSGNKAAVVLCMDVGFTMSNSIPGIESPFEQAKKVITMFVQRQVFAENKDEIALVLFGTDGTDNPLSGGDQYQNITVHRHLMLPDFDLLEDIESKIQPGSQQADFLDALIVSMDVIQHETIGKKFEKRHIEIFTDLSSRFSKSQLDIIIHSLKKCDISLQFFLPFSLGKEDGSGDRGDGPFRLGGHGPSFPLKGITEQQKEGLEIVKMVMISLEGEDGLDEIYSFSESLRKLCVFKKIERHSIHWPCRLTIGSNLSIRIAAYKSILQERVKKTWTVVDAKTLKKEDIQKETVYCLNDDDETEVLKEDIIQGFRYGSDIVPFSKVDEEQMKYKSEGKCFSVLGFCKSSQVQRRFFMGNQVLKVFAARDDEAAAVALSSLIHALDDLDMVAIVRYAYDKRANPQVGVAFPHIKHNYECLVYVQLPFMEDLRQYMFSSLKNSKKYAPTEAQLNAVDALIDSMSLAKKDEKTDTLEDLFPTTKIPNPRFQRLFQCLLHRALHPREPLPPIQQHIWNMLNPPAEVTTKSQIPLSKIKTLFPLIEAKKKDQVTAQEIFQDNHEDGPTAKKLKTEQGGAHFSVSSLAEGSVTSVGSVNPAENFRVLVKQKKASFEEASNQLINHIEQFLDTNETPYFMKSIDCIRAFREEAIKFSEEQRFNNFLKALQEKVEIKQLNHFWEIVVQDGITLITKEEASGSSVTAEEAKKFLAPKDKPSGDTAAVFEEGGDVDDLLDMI

Molecular target: T1, FLAG-tagged wild type MAD1 (mitotic arrest-deficient protein 1) (UniProt Q9Y6D9)
T1 sequence: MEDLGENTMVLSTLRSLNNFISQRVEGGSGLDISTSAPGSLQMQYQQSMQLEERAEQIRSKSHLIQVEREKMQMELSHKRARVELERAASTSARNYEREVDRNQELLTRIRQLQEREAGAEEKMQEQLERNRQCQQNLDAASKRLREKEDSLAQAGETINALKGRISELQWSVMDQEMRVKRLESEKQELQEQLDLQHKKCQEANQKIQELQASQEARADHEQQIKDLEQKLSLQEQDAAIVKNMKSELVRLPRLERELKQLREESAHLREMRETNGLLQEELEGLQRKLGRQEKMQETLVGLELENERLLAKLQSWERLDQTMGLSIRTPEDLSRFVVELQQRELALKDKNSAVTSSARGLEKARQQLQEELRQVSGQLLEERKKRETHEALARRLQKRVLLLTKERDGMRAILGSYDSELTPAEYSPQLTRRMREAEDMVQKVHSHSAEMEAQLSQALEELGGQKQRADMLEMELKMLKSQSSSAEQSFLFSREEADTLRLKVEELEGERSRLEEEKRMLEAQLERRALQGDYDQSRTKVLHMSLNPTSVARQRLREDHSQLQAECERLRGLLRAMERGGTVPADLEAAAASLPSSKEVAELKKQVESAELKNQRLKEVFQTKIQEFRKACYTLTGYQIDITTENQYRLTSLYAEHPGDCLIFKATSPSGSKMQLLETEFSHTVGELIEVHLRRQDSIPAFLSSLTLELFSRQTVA
Test: affinity purification with mass spectrometry; FLAG immunoprecipitates from HeLa cells expressing FLAG-MAD1 (wild type or S214A), mock or IR; silver-stained gel bands that changed, in-gel trypsin digestion, LC-MS/MS; normal IgG control in parallel

- binding: binds
Substance: KU80 (from UniProt P13010 1-732)
